Source: article PMC4666351, “A novel transcriptional regulator of L-arabinose utilization in human gut bacteria”
For some of these results: Negatives hold for the conditions tested. The exact form of at least one protein or probe is not confirmed. For some of these results: The comparison behind a weaker result is the experiment's own reference, which may not be listed here.

Key:
[1] = molecular target: BtAraR (apo) (UniProt Q8AAV8); test: EMSA; conditions: EMSA: 20 mM Tris-HCl pH 8.0, 150 mM KCl, 5 mM MgCl2, 1 mM DTT, 0.05% NP-40, 2.5% glycerol, 37 C, 30 min, DNA 0.2 nM (0.16 nM in Fig S4), protein 0.25-1 uM, recombinant protein, residues 1-225, protein details: N-terminal His6 removed by TEV, leaves SNA, label: 5'-biotin on one strand
[2] = molecular target: BtAraR (apo) (UniProt Q8AAV8); test: crystal structure; conditions: apo protein dimer with one duplex, 3.05 A; recombinant protein; residues 1-225; protein details: N-terminal His6 removed by TEV, leaves SNA

CCCCCACTATAATTAACCAATTAATCTAATCCAACGGTTACATAGGAGGTACTAATATAACCCCC (double strand) [negative control, shuffled BT0356]
binding result ([1]; no effector, up to 1 uM protein): no binding

CCCCCATATAAGAGTGTATTTGATACACCAAACAAAAGTGTTACTTTTACACCCAAAATACCCCC (double strand) [BT0356 (araM) promoter 65-bp]
binding result ([1]; 0.01 mM L-arabinose, 1 uM protein): binds more weakly
binding result ([1]; 0.5 mM L-arabinose, 1 uM protein): no binding
binding result ([1]; 0.5-2 mM D-xylose, 1 uM protein, partial impairment): binds more weakly
binding result ([1]; no effector, shift at 1.0 uM, two shifted bands): binds

CCCCCTACTCAAAGTGTAAAAAAGACACTTATATAACCCCC (double strand) [BT0365 promoter 41-bp]
binding result ([1]; no effector, shift at 1.0 uM, one shifted band): binds

GCAAAAGTGTTACTTTTACACCCATGC (double strand) [27-bp araM operator (crystal)]
binding result [2]: binds
